Data as given in patent US20250163138A1 (Alexion, published 2025).
Substitutions are numbered along the chain they refer to. These are yes or no findings as the source states them, for the method shown. Some binding calls cover weakened binding; strength is not graded here.

Protein sequences, listed by entry. Tags and fused reporters are not part of them. Residues count along the entry.
UniProt P01031, residues 19-1676: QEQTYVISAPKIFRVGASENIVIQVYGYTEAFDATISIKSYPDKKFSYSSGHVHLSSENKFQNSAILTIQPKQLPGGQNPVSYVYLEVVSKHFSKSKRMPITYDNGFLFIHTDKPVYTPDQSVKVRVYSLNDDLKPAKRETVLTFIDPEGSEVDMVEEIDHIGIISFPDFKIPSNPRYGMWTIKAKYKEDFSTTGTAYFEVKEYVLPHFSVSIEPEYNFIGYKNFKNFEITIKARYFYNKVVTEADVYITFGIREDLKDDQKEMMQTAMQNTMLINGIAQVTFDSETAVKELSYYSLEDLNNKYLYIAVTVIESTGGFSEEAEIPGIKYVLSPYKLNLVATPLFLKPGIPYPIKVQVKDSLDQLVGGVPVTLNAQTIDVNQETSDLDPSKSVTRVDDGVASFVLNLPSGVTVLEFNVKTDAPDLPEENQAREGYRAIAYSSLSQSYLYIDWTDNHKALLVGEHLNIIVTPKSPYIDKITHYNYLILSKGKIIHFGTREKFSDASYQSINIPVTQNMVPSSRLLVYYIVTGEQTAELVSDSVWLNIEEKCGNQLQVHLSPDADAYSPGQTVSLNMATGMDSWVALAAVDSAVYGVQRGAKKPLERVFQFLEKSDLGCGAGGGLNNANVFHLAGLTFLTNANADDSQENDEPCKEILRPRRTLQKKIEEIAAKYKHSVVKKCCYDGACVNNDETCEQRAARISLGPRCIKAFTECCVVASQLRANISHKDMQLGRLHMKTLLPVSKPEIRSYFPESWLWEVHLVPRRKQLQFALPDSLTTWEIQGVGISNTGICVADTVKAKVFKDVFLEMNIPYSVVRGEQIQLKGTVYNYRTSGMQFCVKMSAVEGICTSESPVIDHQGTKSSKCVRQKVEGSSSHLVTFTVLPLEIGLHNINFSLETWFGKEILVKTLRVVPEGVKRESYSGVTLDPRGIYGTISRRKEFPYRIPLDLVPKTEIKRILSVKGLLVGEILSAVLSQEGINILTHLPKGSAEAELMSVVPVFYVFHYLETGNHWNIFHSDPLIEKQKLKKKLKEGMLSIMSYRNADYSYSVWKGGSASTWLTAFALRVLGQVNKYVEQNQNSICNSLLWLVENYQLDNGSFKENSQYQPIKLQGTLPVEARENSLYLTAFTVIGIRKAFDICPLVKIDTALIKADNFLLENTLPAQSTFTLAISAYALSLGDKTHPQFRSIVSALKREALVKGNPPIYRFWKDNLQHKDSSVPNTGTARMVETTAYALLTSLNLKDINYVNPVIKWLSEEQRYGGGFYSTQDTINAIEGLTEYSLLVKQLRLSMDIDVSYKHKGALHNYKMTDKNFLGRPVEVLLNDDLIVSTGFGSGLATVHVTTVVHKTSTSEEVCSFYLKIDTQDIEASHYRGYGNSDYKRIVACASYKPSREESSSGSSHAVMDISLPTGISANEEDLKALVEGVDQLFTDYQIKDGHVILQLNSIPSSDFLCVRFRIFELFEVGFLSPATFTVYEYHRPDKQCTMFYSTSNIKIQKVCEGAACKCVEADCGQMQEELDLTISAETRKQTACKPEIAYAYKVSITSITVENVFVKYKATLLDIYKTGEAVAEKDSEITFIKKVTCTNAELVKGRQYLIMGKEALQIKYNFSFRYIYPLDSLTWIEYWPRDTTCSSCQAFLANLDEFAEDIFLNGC
UniProt P02768, residues 25-609: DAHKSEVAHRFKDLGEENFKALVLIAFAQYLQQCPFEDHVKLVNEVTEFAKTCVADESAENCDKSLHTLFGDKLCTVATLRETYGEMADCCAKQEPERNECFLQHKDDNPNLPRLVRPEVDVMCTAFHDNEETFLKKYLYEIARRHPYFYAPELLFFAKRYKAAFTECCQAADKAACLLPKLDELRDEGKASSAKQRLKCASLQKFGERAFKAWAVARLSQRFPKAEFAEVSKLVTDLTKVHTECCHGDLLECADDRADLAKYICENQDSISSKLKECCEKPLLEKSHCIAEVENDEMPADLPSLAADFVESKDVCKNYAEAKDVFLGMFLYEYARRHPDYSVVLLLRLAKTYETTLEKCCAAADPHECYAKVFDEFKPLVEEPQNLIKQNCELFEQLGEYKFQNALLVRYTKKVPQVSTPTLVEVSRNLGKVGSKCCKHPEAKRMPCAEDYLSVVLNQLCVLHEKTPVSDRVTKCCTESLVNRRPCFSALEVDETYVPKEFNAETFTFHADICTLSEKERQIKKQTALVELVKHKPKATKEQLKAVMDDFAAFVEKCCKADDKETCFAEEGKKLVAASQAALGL

B1: TPP-3213 (bispecific antibody)
chain: EVQLVESGGGLVKPGGSLRLSCAASGRPVSNYAAAWFRQAPGKEREFVSAINWQKTATYADSVKGRFTISRDNAKNSLYLQMNSLRAEDTAVYYCAAVFRVVAPKTQYDYDYWGQGTLVTVSSEVQLVESGGGLVQPGGSLRLSCAASGRAHSDYAMAWFRQAPGQEREFVAGIGWSGGDTLYADSVRGRFTNSRDNSKNTLYLQMNSLRAEDTAVYYCAARQGQYIYSSMRSDSYDYWGQGTLVTVSS
B2: TPP-3214 (bispecific antibody)
chain: EVQLVESGGGLVKPGGSLRLSCAASGRPVSNYAAAWFRQAPGKEREFVSAINWQKTATYADSVKGRFTISRDNAKNSLYLQMNSLRAEDTAVYYCAAVFRVVAPKTQYDYDYWGQGTLVTVSSGGGGSEVQLVESGGGLVQPGGSLRLSCAASGRAHSDYAMAWFRQAPGQEREFVAGIGWSGGDTLYADSVRGRFTNSRDNSKNTLYLQMNSLRAEDTAVYYCAARQGQYIYSSMRSDSYDYWGQGTLVTVSS
B3: TPP-3215 (bispecific antibody)
chain: EVQLVESGGGLVKPGGSLRLSCAASGRPVSNYAAAWFRQAPGKEREFVSAINWQKTATYADSVKGRFTISRDNAKNSLYLQMNSLRAEDTAVYYCAAVFRVVAPKTQYDYDYWGQGTLVTVSSEAAAKEAAAKEAAAKEVQLVESGGGLVQPGGSLRLSCAASGRAHSDYAMAWFRQAPGQEREFVAGIGWSGGDTLYADSVRGRFTNSRDNSKNTLYLQMNSLRAEDTAVYYCAARQGQYIYSSMRSDSYDYWGQGTLVTVSS
B4: TPP-3216 (bispecific antibody)
chain: B2 chain with G124P, G125A, G126P, G127A, S128P
B5: TPP-3217 (bispecific antibody)
chain: EVQLVESGGGLVKPGGSLRLSCAASGRPVSNYAAAWFRQAPGKEREFVSAINWQKTATYADSVKGRFTISRDNAKNSLYLQMNSLRAEDTAVYYCAAVFRVVAPKTQYDYDYWGQGTLVTVSSGGGGSPAPAPEVQLVESGGGLVQPGGSLRLSCAASGRAHSDYAMAWFRQAPGQEREFVAGIGWSGGDTLYADSVRGRFTNSRDNSKNTLYLQMNSLRAEDTAVYYCAARQGQYIYSSMRSDSYDYWGQGTLVTVSS
B6: TPP-3218 (bispecific antibody)
chain: B5 chain with G124P, G125A, G126P, G127A, S128P, P129G, A130G, P131G, A132G, P133S
B7: TPP-3219 (bispecific antibody)
chain: EVQLVESGGGLVKPGGSLRLSCAASGRPVSNYAAAWFRQAPGKEREFVSAINWQKTATYADSVKGRFTISRDNAKNSLYLQMNSLRAEDTAVYYCAAVFRVVAPKTQYDYDYWGQGTLVTVSSGSTSGKSSEGKGEVQLVESGGGLVQPGGSLRLSCAASGRAHSDYAMAWFRQAPGQEREFVAGIGWSGGDTLYADSVRGRFTNSRDNSKNTLYLQMNSLRAEDTAVYYCAARQGQYIYSSMRSDSYDYWGQGTLVTVSS
B8: TPP-3220 (bispecific antibody)
chain: B5 chain with G127D, P129G, A130G, P131G, A132D, P133S
B9: TPP-3221 (bispecific antibody)
chain: B5 chain with G127E, P129G, A130G, P131G, A132E, P133S
B10: TPP-3222 (bispecific antibody)
chain: B5 chain with P129G, A130G, P131G, A132G, P133S
B11: TPP-3223 (bispecific antibody)
chain: B5 chain with G127D, P129G, A130G, P131G, A132G, P133S
B12: TPP-3224 (bispecific antibody)
chain: B5 chain with G127A, P129G, A130G, P131G, A132G, P133S
B13: LCP0137 (VHH, not shown: small tags and cut ends)
VHH: EVQLVESGGGLVQPGGSLRLSCRASGFTYSTAAMGWVRQAPGKGLEWVSSISSLGSDRKSADSVKGRFTISRDNAKNTLYLQMNSLKPEDTAVYYCARFISNRWSRDVHAPSDFGSRGQGTQVTVSS
B14: LCP0141 (VHH, not shown: small tags and cut ends)
VHH: EVQLVESGGGLVQAGGSLRLSCIASVTIADINVMGWYRQAPGKQREFVASIPTTGDKNYAESAKGRFTISRDNSQNTVAMQMNNLKPDDTAVYYCYVLLSRAVSGSYGHWGQGTQVTVSS
B15: LCP0142 (VHH, not shown: small tags and cut ends)
VHH: EVQLVESGGGLVQVGGSLRLSCAASGSIVDIKVMGWYRQAPGNERELVALINDADDSEYSPSMRGRFTISRDNSKNTVYLQMNSLKPEDTAAYYCAADRDSSWFKSPYIPGSWGQGTQVTVSS
B16: LCP0144 (VHH, not shown: small tags and cut ends)
VHH: EVQLVESGGGLVQAGGSLRLSCAASGIDGDINVMAWYRQAPGKQRELVASITIGGNTNYADSVKGRFTIARDNAKNRMSLEMNSLKSEDTAVYYCNTLLSRVHDGQYVFWGQGTQVTVSS
B17: LCP0147 (VHH, not shown: small tags and cut ends)
VHH: EVQLVESGGGLVQAGGSLRLSCAASGRTFSSSNMGWFRQAPGEEREFVTAIDWSGGRTYYADSVKGRFTISRDNAKNTVYLQMDSLKPEDTAVYYCAAQGSGLDWGYPWTYDYWGQGTQVTVSS
B18: LCP0150 (VHH, not shown: small tags and cut ends)
VHH: EVQLVESGGGLVQAGGSLRLSCVASGSGFGILDMGWYRQAPGSRRELVGYVTRDGTTNYGNSVKGRSIISEDITKNTVILQMNSLKPEDTAVYFCTAGLTNQPRAWGQGTQVTVSS
B19: LCP0151 (VHH, not shown: small tags and cut ends)
VHH: EVQLVESGGGLVQPGGSLRLSCAASGSVSSINVMGWYRQTPGKQRELVAAINRGGSTNVADSVKGRFTISRDNAKNTVYLQMNSLKPEDTAVYYCNAEPYGLDWRYDYWGQGTQVTVSS
B20: LCP0153 (VHH, not shown: small tags and cut ends)
VHH: EVQLVESGGGLVQAGGSLTLSCVASGRTFSNYRMGWFRQAPGKEREFVGTIYWSTGRSYYGDSVKGRFIISGDNAKNTIHLQMNSLKPGDTGVYYCASGPEMSAFDSWGQGTQVTVSS
B21: LCP0154 (VHH, not shown: small tags and cut ends)
VHH: EVQLVESGGGLVQPGGSLRLSCAASGFTLDDYAIGWFRQAPGKEREGVSCISSSDGSTYYGDSVKGRFTISRDNAKNTMYLQMNSLKPEDTAVYYCATGTPLSSYYGSCLDYDMAYWGQGTQVTVSS
B22: LCP0155 (VHH, not shown: small tags and cut ends)
VHH: EVQLVESGGGLVQAGGSLRLSCAASGVTFSNYGMAWFRQAPEKEREFVARISSNGRRTEYADGVSGRFTISRDNAKNTVYLQMNGLKPEDTAVYYCARAAGPSGFHEQSIYDDWGQGTQVTVSS
B23: LCP0295 (VHH, not shown: small tags and cut ends)
VHH: EVQLVESGGGLVQAGGSLRLSCAVSGRSISTYVAGWFRQGPGKEREFVALISRGGGDIQYSDSVKGRFTISRDNAKNAVYLQMNSLKPADTAVYYCSLDASFGSRLVSRWDYWGQGTQVTVSS
B24: LCP0297 (VHH, not shown: small tags and cut ends)
VHH: EVQLVESGGGLVQAGGSLRLSCAGSGFTSDDYAIAWFRQAPGKEREGVSCIGSGDGTTYYADSVKGRFIISSENAKKTVYLQMNSLKPEDTGIYYCAADLYPPADYALDHTWYDYWGQGTQVTVSS

Molecular target: T1, human complement protein C5 (human, UniProt P01031 19-1676)
T1 construct: Native C5 is a two-chain protein made from one precursor; also called hC5; human C5
Assay: sandwich: biotin-hC5 on CAP chip, fusion, then albumin; pH 7.4

Row | Binder | binding
1 | B1 | binds
2 | B2 | binds
3 | B3 | binds
4 | B4 | binds
5 | B5 | binds
6 | B6 | binds
7 | B7 | binds
8 | B8 | binds
9 | B9 | binds
10 | B10 | binds
11 | B11 | binds
12 | B12 | binds

Molecular target: T2, human serum albumin (human, UniProt P02768 25-609)
T2 construct: also called HSA; human albumin
Assay: as above

Row | Binder | binding
13 | B1 | binds
14 | B2 | binds
15 | B3 | binds
16 | B4 | binds
17 | B5 | binds
18 | B6 | binds
19 | B7 | binds
20 | B8 | binds
21 | B9 | binds
22 | B10 | binds
23 | B11 | binds
24 | B12 | binds

Molecular target: T1, human complement protein C5
Assay: SPR (Biacore 3000), biotin-hC5 on CAP chip, pH 7.4

Row | Binder | binding
25 | B1 | binds
26 | B2 | binds
27 | B3 | binds
28 | B4 | binds
29 | B5 | binds
30 | B6 | binds
31 | B7 | binds
32 | B8 | binds
33 | B9 | binds
34 | B10 | binds
35 | B11 | binds
36 | B12 | binds

Molecular target: T2, human serum albumin
Assay: SPR (Biacore 3000), biotin-hC5 on CAP chip, pH 7.4

Row | Binder | binding
37 | B1 | binds
38 | B2 | binds
39 | B3 | binds
40 | B4 | binds
41 | B5 | binds
42 | B6 | binds
43 | B7 | binds
44 | B8 | binds
45 | B9 | binds
46 | B10 | binds
47 | B11 | binds
48 | B12 | binds

Molecular target: T1, human complement protein C5
Assay: BLI, VHH-His on anti-penta-His tips, 50 nM C5

Row | Binder | binding
49 | B13 | binds
50 | B14 | binds
51 | B15 | binds
52 | B16 | binds
53 | B17 | binds
54 | B18 | binds
55 | B19 | binds
56 | B20 | binds
57 | B21 | binds
58 | B22 | binds
59 | B23 | binds
60 | B24 | binds

Molecular target: cynomolgus monkey (cyno) complement protein C5 (cynomolgus monkey)
Assay: BLI, VHH-His on anti-penta-His tips, 50 nM C5

Row | Binder | binding
61 | B13 | binds
62 | B14 | binds
63 | B15 | binds
64 | B16 | binds
65 | B17 | binds
66 | B18 | binds
67 | B19 | binds
68 | B20 | binds
69 | B21 | binds
70 | B22 | binds
71 | B23 | binds
72 | B24 | binds
